Reference: PubChem BioAssay AID1224827 (NIAID, 2016)

Aim: 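Confirm genes whose knock-down changes LPS-driven TNF promoter activity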 (follow-up of hits)
Cell system: RAW264.7 G9 mouse macrophage reporter clone
Reagent: single siRNA against mouse genes, 100 nM siRNA
Time to read-out: siRNA for 2 days, then LPS about 16 h
Treatment: bacterial lipopolysaccharide (LPS), 10 ng/ml, cells fixed after overnight (about 16 h) stimulation
Detection: 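TNF promoter reporter red fluorescence in nuclei, background subtracted, normalised per plate and to non-targeting control siRNA, as z-scores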
Direction: TNF reporter z-score, mean and TNF reporter z-score: higher = stronger Tnf promoter reporter signal; gene median z, three same-vendor siRNAs: higher = stronger Tnf reporter signal for the gene
Hit rule: 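Active siRNA: replicate-mean z-score of 2 or more, or -2 or less; no calls for control wells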
Here is an unselected part of about 3,800 deposited reagents. In the full data, about 2,200 (57%) are marked active. 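Active means a strong reporter change in either direction; calls are per siRNA, not per gene; qiagen siRNAs gave weaker effects.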 A number with no mark means an inactive call. Reagents against one gene are numbered here.

gene | siRNA no. | TNF reporter z-score, mean | gene median z, three same-vendor siRNAs | TNF reporter z-score, repeat 1 | TNF reporter z-score, repeat 2
Usp43 | 1 | 4.26 (active) | 1.49 | 3.56 | 4.97
Usp43 | 2 | 1.49 | 1.49 | 0.333 | 2.65
Usp43 | 3 | -2.24 (active) | 1.49 | -2.47 | -2.01
Skint7 | 1 | 10.7 (active) | -2.76 | 8.85 | 12.5
Skint7 | 2 | -3 (active) | -2.76 | -3.47 | -2.53
Skint7 | 3 | -3.21 (active) | -2.76 | -3.44 | -2.99
Skint7 | 4 | 1.53 | 0.183 | 2.58 | 0.49
Skint7 | 5 | 0.746 | 0.183 | 1.61 | -0.123
Skint7 | 6 | -3.98 (active) | 0.183 | -4.45 | -3.52
Tyw1 | 1 | -0.763 | -2.54 | -0.658 | -0.868
Tyw1 | 2 | -2.54 (active) | -2.54 | -2.4 | -2.68
Tyw1 | 3 | -3.71 (active) | -2.54 | -4.3 | -3.11
Tyw1 | 4 | 1.42 | -0.828 | 3.14 | -0.29
Tyw1 | 5 | -0.802 | -0.828 | -0.24 | -1.37
Tyw1 | 6 | -3.33 (active) | -0.828 | -3.57 | -3.1

Already shown: an excerpt of the list.
gene | siRNA no. | TNF reporter z-score, mean | gene median z, three same-vendor siRNAs | TNF reporter z-score, repeat 1 | TNF reporter z-score, repeat 2
Tyw1 | 1 | -0.763 | -2.54 | -0.658 | -0.868
Tyw1 | 2 | -2.54 (active) | -2.54 | -2.4 | -2.68

More results:
gene | siRNA no. | TNF reporter z-score, mean | gene median z, three same-vendor siRNAs | TNF reporter z-score, repeat 1 | TNF reporter z-score, repeat 2
Hsd17b6 | 1 | -2.02 (active) | -2.46 | -2.46 | -1.59
Hsd17b6 | 2 | -2.32 (active) | -2.46 | -2.46 | -2.17
Hsd17b6 | 3 | -4.7 (active) | -2.46 | -4.55 | -4.86
Hsd17b6 | 4 | 1.1 | -0.541 | 2.59 | -0.394
Hsd17b6 | 5 | 0.271 | -0.541 | 1.23 | -0.688
Hsd17b6 | 6 | -2.36 (active) | -0.541 | -1.85 | -2.87
Rab32 | 1 | 0.815 | -2.8 | 0.888 | 0.742
Rab32 | 2 | -2.8 (active) | -2.8 | -2.54 | -3.06
Rab32 | 3 | -4.92 (active) | -2.8 | -5.6 | -4.25
Rab32 | 4 | 3.09 (active) | -0.515 | 5.59 | 0.593
Rab32 | 5 | -0.515 | -0.515 | -0.515 | -0.515
Rab32 | 6 | -2.79 (active) | -0.515 | -3.53 | -2.05
